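293T-iDUX4 cells carrying a ZSCAN4-driven Gaussia luciferase and a tet-on Italica luciferase control; the gap between the two luminescence signals is read after 24 h.
The test concentration is not given here.
Percent difference between the Gaussia and Italica channels; more negative values mean more selective suppression of the DUX4 reporter, and higher values mean less activity.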

Values are in %.
The controls that fix the scale are not given here.
Common to all entries: measured here: selective DUX4 reporter inhibition.
This is a side read-out of the assay, for part of the compounds, not drawn at random.

O=C(C[C@H]1C[C@H]2c3cc(NS(=O)(=O)c4ccc(F)cc4)ccc3O[C@H]2[C@@H](CO)O1)N1CCc2ccccc2C1 read Gaussia minus Italica difference 0.5612%.
C[C@@H]1CN([C@H](C)CO)C(=O)c2ccccc2-c2ccccc2CO[C@@H]1CN(C)Cc1cccc(C(F)(F)F)c1 read Gaussia minus Italica difference -23.6%.
COc1ccc2c3c([nH]c2c1)[C@@H](CO)N(Cc1ccccc1OC)CC31CN(S(C)(=O)=O)C1 read Gaussia minus Italica difference -0.2533%.
O=C(c1cnccn1)N1CC(=O)N2[C@H](CO)[C@@H](c3ccc(C#CCc4ccccc4)cc3)[C@@H]2C1 read Gaussia minus Italica difference -18.11%.
Cc1cccc(S(=O)(=O)N2CCCCN3[C@H](CO)[C@@H](c4ccc(C#C[C@H](C)O)cc4)[C@@H]3C2)c1 read Gaussia minus Italica difference 0.4302%.
C[C@@H]1CN([C@@H](C)CO)C(=O)CCCn2nncc2CO[C@@H]1CN(C)Cc1ccc(C(F)(F)F)cc1 read Gaussia minus Italica difference -12.09%.
O=C(C[C@@H]1CC[C@@H]2[C@H](COC[C@@H](O)CN2Cc2cc(F)ccc2F)O1)N[C@@H]1CCN(Cc2ccccc2)C1 read Gaussia minus Italica difference -3.789%.
N#Cc1ccc(-c2ccc(C3[C@@H]4CN(C(=O)Cc5ccccc5)C[C@H]3N4)cc2)cc1 (some centres not stated) read Gaussia minus Italica difference -11.69%.
O=C(c1ccc2c(c1)OCO2)N1CC(=O)N2[C@H](CO)[C@H](c3ccc(C#CCC4CCCC4)cc3)[C@@H]2C1 read Gaussia minus Italica difference -0.9117%.
C[C@H](C(=O)N(C)C[C@H]1OCc2ccccc2-c2c(n(C)c3ccccc23)C(=O)N([C@@H](C)CO)C[C@@H]1C)c1ccccc1 read Gaussia minus Italica difference -17.94%.
CCCC#Cc1ccc([C@H]2[C@@H](CO)N3CCCCN(C(=O)NC4CCCC4)C[C@H]23)cc1 read Gaussia minus Italica difference 6.546%.
O=C(C1CCC1)N1CCCCN2[C@@H](CO)[C@@H](c3ccc(-c4ccncc4)cc3)[C@@H]2C1 read Gaussia minus Italica difference 5.982%.
CS(=O)(=O)N1CC2(C1)[C@@H](c1ccccc1)[C@@H](CO)N2CC1CCCC1 read Gaussia minus Italica difference -9.596%.
CN1c2ccc(-c3ccc(F)cc3)cc2[C@H]2[C@H](CCN2S(=O)(=O)c2ccc(F)cc2)[C@@H]1CO read Gaussia minus Italica difference 7.58%.
O=C(C[C@@H]1C[C@H]2c3cc(NC(=O)c4ccc5c(c4)OCO5)ccc3O[C@H]2[C@H](CO)O1)NCc1cc(F)ccc1F read Gaussia minus Italica difference -11.74%.
O=C(C[C@@H]1C[C@H]2c3cc(NS(=O)(=O)c4ccc(F)cc4)ccc3O[C@H]2[C@H](CO)O1)NCc1ccc(Oc2ccccc2)cc1 read Gaussia minus Italica difference 10.23%.
COc1cccc(-c2ccc3c(c2)[C@H]2[C@H](CCN2C(=O)Cc2ccccc2)[C@H](CO)N3)c1 read Gaussia minus Italica difference 18.15%.
CN(C)C(=O)[C@H]1[C@H](CO)[C@H]2Cn3c(ccc(C4=CCCC4)c3=O)[C@H]2N1Cc1ccc2c(c1)OCO2 read Gaussia minus Italica difference -5.425%.
O=C(c1ccccc1F)N1CC(=O)N2[C@@H](CO)[C@@H](c3ccc(C#Cc4ccccc4)cc3)[C@@H]2C1 read Gaussia minus Italica difference -0.5735%.
O=C(c1ccccn1)N1CC(=O)N2[C@H](C1)[C@@H](c1ccc(C#Cc3ccccc3)cc1)[C@@H]2CO read Gaussia minus Italica difference -0.01526%.
CO[C@@H]1CN(C)C(=O)c2ccc(NC(=O)c3ccc(F)cc3)cc2OC[C@@H](C)N(C)C[C@@H]1C read Gaussia minus Italica difference -11.55%.
Cc1ccc(-c2ccc([C@@H]3[C@H](CO)N4CCCCN(S(=O)(=O)c5ccccc5C)C[C@@H]34)cc2)cc1 read Gaussia minus Italica difference 3.665%.
O=C(C[C@H]1C[C@@H]2c3cc(NC(=O)C4CCOCC4)ccc3O[C@@H]2[C@@H](CO)O1)NCc1ccc(Oc2ccccc2)cc1 read Gaussia minus Italica difference -10.98%.

The last 2 entries again:

SMILES	Gaussia minus Italica difference (%)
Cc1ccc(-c2ccc([C@@H]3[C@H](CO)N4CCCCN(S(=O)(=O)c5ccccc5C)C[C@@H]34)cc2)cc1	3.665
O=C(C[C@H]1C[C@@H]2c3cc(NC(=O)C4CCOCC4)ccc3O[C@@H]2[C@@H](CO)O1)NCc1ccc(Oc2ccccc2)cc1	-10.98

Data taken from PubChem BioAssay AID1224904, deposited by Broad Institute (2016).